Assay results taken from US20200377564.
For some assays here: A negative result means that nothing was seen under these conditions. Tags and fusion partners may be left off the protein sequences shown. For some assays here: Construct, isoform or probe ends are uncertain for at least one entry.

Experiments:
Assay in all cases: activity in cells
[1] = test system: T1, ZF3-p65-ERT2 synTF (Artificial Sequence); conditions: 4OHT-induced activation in Jurkat and HEK293; 4X ZF3 BS-minCMV-mCherry; protein in cells; protein details: p65 and ERT2 fusion; only the site is given
T1 sequence: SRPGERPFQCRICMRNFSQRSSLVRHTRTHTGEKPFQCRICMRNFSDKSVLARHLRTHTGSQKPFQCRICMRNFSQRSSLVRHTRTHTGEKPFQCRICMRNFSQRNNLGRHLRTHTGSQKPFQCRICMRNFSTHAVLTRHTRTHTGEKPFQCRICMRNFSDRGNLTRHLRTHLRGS

[2] = test system: T2, ZF3 (ZF3-5)-p65 synTF (Artificial Sequence); conditions: protein in cells, protein details: p65(361-551) activation domain fusion, only the site is given
T2 sequence: T1 sequence

[3] = test system: T3, KRAB-ZF3-ERT2 synTF (Artificial Sequence); conditions: 4OHT-induced repression of reporter in HEK293; 4X ZF3 BS; protein in cells; protein details: KRAB and ERT2 fusion; only the site is given
T3 sequence: T1 sequence

[4] = non-cognate reporter not activated

| Sequence | activity on this sequence [1] | activity on this sequence ([2]; HEK293FT integrated reporter, 4 tandem DBMs upstream of minimal promoter, strong activation) | activity on this sequence [3] | activity on this sequence [2, 4] |
| --- | --- | --- | --- | --- |
| AGACGTCGAAGTAGCCGTAG (double strand) [Target 3 (ZF3 DBM)] | active | active | active |  |
| CGGCGTAGCCGATGTCGCGC (double strand) [Target 10 (ZF10 DBM)] |  |  |  | not active |
| CGTCGAAGTCGAAGTCGACC (double strand) [Target 1 (ZF1 DBM)] |  |  |  | not active |
